For 2 molecules, binding results are on record in PMC9243396.

Results are given in words; binding and its absence hold for the method and conditions named. Some entries that bind do so weakly or less than the wild type. Sequences can lack the tags named with a protein.

Common to all, as to assay: two-hybrid; LexA DNA-binding domain bait (pBTM116) and GAL4 activation domain prey (pACT2) co-transformed into S. cerevisiae L40; growth of 10-fold serial dilutions on CSM -Leu -Trp -His
Assay [1] has as its target T1, Rad5-MIPΔ (7-EERKRFF-13 mutated to 7-EERKRAA-13) fused to the LexA DNA-binding domain (bait) (S. cerevisiae) (UniProt P32849).
T1 sequence: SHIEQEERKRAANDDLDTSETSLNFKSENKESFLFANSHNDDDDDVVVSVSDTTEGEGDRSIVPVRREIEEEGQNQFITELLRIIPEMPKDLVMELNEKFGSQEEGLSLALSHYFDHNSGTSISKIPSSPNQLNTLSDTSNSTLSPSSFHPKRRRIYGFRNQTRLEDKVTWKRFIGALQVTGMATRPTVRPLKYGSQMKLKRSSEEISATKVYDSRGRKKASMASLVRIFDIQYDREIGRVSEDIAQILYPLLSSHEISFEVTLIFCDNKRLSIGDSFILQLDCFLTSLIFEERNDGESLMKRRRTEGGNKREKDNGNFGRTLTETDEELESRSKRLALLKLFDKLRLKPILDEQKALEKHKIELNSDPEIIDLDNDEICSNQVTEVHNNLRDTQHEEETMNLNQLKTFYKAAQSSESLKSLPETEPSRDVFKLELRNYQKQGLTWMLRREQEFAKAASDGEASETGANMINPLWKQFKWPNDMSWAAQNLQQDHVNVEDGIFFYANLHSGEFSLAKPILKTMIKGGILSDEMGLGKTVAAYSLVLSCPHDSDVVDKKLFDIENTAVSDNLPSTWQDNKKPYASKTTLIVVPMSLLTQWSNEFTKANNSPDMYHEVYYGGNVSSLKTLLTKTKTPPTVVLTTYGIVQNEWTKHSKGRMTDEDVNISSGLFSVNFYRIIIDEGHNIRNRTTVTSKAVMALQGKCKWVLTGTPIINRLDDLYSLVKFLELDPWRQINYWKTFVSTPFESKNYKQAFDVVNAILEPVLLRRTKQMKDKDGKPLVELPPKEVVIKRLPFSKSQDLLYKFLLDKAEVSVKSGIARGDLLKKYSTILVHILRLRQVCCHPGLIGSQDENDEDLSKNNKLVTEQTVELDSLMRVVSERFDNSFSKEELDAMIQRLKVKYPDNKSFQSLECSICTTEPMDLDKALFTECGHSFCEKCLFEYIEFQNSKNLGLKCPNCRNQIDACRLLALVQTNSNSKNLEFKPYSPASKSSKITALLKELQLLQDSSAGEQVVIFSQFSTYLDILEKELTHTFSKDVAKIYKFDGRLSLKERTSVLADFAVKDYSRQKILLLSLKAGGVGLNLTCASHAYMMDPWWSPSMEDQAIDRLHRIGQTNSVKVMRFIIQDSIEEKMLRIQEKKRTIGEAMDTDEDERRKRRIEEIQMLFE

The target in assay [2] is T2, Rad5-SHIPΔ (30-NKESFLF-36 mutated to 30-NKESALA-36) fused to the LexA DNA-binding domain (bait) (S. cerevisiae) (UniProt P32849).
T2 sequence: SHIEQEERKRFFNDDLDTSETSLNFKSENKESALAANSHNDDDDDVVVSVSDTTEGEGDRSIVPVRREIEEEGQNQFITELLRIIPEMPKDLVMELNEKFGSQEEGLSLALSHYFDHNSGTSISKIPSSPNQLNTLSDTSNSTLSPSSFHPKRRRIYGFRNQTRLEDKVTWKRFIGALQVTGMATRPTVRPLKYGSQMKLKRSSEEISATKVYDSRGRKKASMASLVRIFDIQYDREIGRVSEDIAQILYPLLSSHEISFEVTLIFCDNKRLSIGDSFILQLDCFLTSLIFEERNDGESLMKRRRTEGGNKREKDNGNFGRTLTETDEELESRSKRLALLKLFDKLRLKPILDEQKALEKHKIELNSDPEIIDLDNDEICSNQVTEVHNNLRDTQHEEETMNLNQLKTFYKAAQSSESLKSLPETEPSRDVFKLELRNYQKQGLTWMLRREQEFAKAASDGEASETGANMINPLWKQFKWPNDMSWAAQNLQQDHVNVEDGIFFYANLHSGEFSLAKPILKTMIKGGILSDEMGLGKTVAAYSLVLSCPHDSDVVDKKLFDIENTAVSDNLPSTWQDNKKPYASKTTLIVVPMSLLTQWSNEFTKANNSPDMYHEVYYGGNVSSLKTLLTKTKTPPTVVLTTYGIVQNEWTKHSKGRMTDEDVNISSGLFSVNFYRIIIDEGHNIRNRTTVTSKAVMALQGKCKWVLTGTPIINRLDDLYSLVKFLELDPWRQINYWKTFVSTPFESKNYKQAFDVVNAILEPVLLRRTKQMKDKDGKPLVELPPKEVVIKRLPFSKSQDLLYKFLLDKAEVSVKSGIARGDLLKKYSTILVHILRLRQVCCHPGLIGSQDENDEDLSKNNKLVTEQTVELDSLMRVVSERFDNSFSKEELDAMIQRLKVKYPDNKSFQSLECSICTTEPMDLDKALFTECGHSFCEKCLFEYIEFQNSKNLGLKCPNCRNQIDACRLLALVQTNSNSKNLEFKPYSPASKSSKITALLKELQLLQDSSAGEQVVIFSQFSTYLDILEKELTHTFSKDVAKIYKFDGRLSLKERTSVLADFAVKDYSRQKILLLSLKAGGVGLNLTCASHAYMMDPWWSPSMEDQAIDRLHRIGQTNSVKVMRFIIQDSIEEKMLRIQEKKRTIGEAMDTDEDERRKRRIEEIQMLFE

The target of assay [3] is T3, S. cerevisiae Rad5 fused to the LexA DNA-binding domain (bait) (S. cerevisiae) (UniProt P32849).
T3 sequence: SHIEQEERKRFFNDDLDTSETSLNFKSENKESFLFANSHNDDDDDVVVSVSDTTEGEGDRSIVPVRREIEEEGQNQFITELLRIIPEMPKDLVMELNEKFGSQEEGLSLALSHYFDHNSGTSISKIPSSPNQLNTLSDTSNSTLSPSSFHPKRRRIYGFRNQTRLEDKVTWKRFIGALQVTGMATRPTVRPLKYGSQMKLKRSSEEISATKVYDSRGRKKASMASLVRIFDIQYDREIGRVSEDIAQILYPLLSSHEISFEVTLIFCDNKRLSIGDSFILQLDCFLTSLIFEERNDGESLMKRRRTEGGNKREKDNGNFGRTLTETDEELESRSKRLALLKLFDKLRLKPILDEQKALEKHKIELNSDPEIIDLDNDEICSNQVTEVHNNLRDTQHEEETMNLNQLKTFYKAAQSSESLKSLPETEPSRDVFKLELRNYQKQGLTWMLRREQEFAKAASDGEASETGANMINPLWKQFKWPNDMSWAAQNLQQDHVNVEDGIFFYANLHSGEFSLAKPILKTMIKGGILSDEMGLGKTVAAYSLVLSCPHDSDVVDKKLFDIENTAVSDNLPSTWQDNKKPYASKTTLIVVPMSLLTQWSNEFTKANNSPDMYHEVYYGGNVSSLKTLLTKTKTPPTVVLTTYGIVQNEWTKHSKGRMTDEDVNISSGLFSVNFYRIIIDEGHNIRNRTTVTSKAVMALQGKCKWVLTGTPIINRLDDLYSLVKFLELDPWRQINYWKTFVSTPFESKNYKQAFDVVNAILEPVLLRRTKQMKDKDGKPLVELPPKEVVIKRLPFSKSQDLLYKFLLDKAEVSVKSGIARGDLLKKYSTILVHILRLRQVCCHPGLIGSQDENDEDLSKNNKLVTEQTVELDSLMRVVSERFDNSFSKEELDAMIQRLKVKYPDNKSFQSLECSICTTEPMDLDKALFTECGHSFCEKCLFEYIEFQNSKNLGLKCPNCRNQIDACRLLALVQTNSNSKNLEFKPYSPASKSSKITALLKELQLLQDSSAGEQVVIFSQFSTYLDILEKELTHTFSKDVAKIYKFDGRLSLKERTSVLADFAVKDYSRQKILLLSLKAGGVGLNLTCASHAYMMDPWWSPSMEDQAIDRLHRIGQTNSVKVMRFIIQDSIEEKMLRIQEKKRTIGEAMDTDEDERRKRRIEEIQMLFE

B1: S. cerevisiae Mlh1 fused to the Gal4 transcriptional activation domain (prey) (protein, UniProt P38920 2-769)
chain: SLRIKALDASVVNKIAAGEIIISPVNALKEMMENSIDANATMIDILVKEGGIKVLQITDNGSGINKADLPILCERFTTSKLQKFEDLSQIQTYGFRGEALASISHVARVTVTTKVKEDRCAWRVSYAEGKMLESPKPVAGKDGTTILVEDLFFNIPSRLRALRSHNDEYSKILDVVGRYAIHSKDIGFSCKKFGDSNYSLSVKPSYTVQDRIRTVFNKSVASNLITFHISKVEDLNLESVDGKVCNLNFISKKSISPIFFINNRLVTCDLLRRALNSVYSNYLPKGNRPFIYLGIVIDPAAVDVNVHPTKREVRFLSQDEIIEKIANQLHAELSAIDTSRTFKASSISTNKPESLIPFNDTIESDRNRKSLRQAQVVENSYTTANSQLRKAKRQENKLVRIDASQAKITSFLSSSQQFNFEGSSTKRQLSEPKVTNVSHSQEAEKLTLNESEQPRDANTINDNDLKDQPKKKQKLGDYKVPSIADDEKNALPISKDGYIRVPKERVNVNLTSIKKLREKVDDSIHRELTDIFANLNYVGVVDEERRLAAIQHDLKLFLIDYGSVCYELFYQIGLTDFANFGKINLQSTNVSDDIVLYNLLSEFDELNDDASKEKIISKIWDMSSMLNEYYSIELVNDGLDNDLKSVKLKSLPLLLKGYIPSLVKLPFFIYRLGKEVDWEDEQECLDGILREIALLYIPDMVPKVDTSDASLSEDEKAQFINRKEHISSLLEHVLFPCIKRRFLAPRHILKDVVEIANLPDLYKVFERC
Turning to B1, the results for the binding entry in assay [1], in assay [2] and in assay [3] were “no binding”, “binds” and “binds”, respectively.

B2: S. cerevisiae Msh2 fused to the Gal4 transcriptional activation domain (prey) (protein, UniProt P25847 2-964)
chain: SSTRPELKFSDVSEERNFYKKYTGLPKKPLKTIRLVDKGDYYTVIGSDAIFVADSVYHTQSVLKNCQLDPVTAKNFHEPTKYVTVSLQVLATLLKLCLLDLGYKVEIYDKGWKLIKSASPGNIEQVNELMNMNIDSSIIIASLKVQWNSQDGNCIIGVAFIDTTAYKVGMLDIVDNEVYSNLESFLIQLGVKECLVQDLTSNSNSNAEMQKVINVIDRCGCVVTLLKNSEFSEKDVELDLTKLLGDDLALSLPQKYSKLSMGACNALIGYLQLLSEQDQVGKYELVEHKLKEFMKLDASAIKALNLFPQGPQNPFGSNNLAVSGFTSAGNSGKVTSLFQLLNHCKTNAGVRLLNEWLKQPLTNIDEINKRHDLVDYLIDQIELRQMLTSEYLPMIPDIRRLTKKLNKRGNLEDVLKIYQFSKRIPEIVQVFTSFLEDDSPTEPVNELVRSVWLAPLSHHVEPLSKFEEMVETTVDLDAYEENNEFMIKVEFNEELGKIRSKLDTLRDEIHSIHLDSAEDLGFDPDKKLKLENHHLHGWCMRLTRNDAKELRKHKKYIELSTVKAGIFFSTKQLKSIANETNILQKEYDKQQSALVREIINITLTYTPVFEKLSLVLAHLDVIASFAHTSSYAPIPYIRPKLHPMDSERRTHLISSRHPVLEMQDDISFISNDVTLESGKGDFLIITGPNMGGKSTYIRQVGVISLMAQIGCFVPCEEAEIAIVDAILCRVGAGDSQLKGVSTFMVEILETASILKNASKNSLIIVDELGRGTSTYDGFGLAWAIAEHIASKIGCFALFATHFHELTELSEKLPNVKNMHVVAHIEKNLKEQKHDDEDITLLYKVEPGISDQSFGIHVAEVVQFPEKIVKMAKRKANELDDLKTNNEDLKKAKLSLQEVNEGNIRLKALLKEWIRKVKEEGLHDPSKITEEASQHKIQELLRAIANEPEKENDNYLKYIKALLL
Regarding B2, the binding entry in assay [1], in assay [2] and in assay [3] was “binds” throughout.
